Structures were worked out from names or drawings and are uncertain.

Protein sequences, listed by entry. Tags and fused reporters are not part of them.
UniProt P43490, whole entry: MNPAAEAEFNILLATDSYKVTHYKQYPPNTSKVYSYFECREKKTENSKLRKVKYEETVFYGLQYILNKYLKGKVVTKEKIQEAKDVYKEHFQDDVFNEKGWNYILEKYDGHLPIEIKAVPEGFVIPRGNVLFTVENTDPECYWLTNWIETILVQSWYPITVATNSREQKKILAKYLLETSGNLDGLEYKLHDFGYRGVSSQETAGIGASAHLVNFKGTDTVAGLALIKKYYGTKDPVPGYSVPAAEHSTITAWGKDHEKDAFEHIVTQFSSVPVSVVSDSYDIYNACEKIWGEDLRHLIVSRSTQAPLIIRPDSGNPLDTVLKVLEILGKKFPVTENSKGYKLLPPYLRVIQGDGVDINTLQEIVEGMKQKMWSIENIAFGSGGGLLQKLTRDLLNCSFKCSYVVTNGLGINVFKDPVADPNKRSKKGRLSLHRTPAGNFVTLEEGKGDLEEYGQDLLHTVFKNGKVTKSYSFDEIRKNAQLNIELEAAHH

The source of these data is patent publication US11452717B2, “Small molecule activators of nicotinamide phosphoribosyltransferase (NAMPT) and uses thereof” (Sanford Burnham Prebys Medical Discovery Institute, priority 2017, dated 2022).

The experiment deals with NAMPT enzyme (Homo sapiens (Human), UniProt P43490). Nature of the experiment: Enzyme Assay and NMN Detection (NAMPT reaction, fluorescence detection of NMN). Conditions: Table B-3; NAMPT activation, NMN formation. Format: biochemical.

The term EC50 denotes the midpoint of the concentration-response curve. The low end stands for a more potent agent, the high end for a less potent agent. `O=C(NCc1ccccc1)Nc1cccc(C(=O)O)c1` returned an EC50 greater than 20 µM.
